Source: PubChem BioAssay AID1347076 (National Center for Advancing Translational Sciences (NCATS), 2019)
Out of some 400,000 compounds screened, about 13,000 (3.2%) were called active. The shares of active, inactive and inconclusive entries below differ from those in the screen. Calls follow the shape of the dose curve; as a rule, active = well fitted cell-killing curve with a large enough effect; inconclusive = small, poorly fitted or top-dose-only effect, or effect the other way; inactive = flat fitted curve, though single readings scatter. Potencies beside an inconclusive call are fits to weak or partial responses and may not hold up.

test: qHTS assay for MDR1-selective chemotherapeutics: Primary screen using the drug-selected MDR subline cells KB-V1; conditions: KB-V1 MDR cells viability, CellTiter-Glo, 72 h; series mostly up to 46.1 µM; also: nearly all actives have a fitted effect of over 60% in size
Method in brief: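 Cytotoxicity toward P-gp-expressing KB-V1 cells was determined as loss of CellTiter-Glo luminescence after 72 h at 37 degrees C. Compounds were tested in quantitative HTS format across a concentration range, with curves fitted to normalized data.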
Potency is read from the fitted curve at half-maximal effect.

Row | SMILES | Potency
1 | COc1cccc(C2C(C(=O)Nc3ccc(Cl)cc3)=C(C)Nc3nc4ccccc4n32)c1 (stereo not given) | inconclusive: 32.6 µM [rising, single point]
2 | CCCn1c(O)c(N=NC(=O)CNC(=O)c2cccnc2)c2ccccc21 | inconclusive: 16.4 µM [cytotoxic, partial curve, poor fit]
3 | CCN1CCN(c2nc(Nc3ccc(C)c(C)c3)nc(N)c2[N+](=O)[O-])CC1 | inconclusive: 18.4 µM [cytotoxic, partial curve, poor fit]
4 | C#CCN1C(C)=C(C(=O)OC)C(c2cccc([N+](=O)[O-])c2)C(C(=O)OCC)=C1C (stereo not given) | active: 11.6 µM
5 | COC(=O)NCC(c1cccnc1)N1CCN(c2ccccc2)CC1 (stereo not given) | inactive
6 | COc1ccc(-c2nn(-c3ccccc3)cc2CNCc2cccnc2)c(F)c1 | inconclusive: 3.26 µM [cytotoxic, full curve]
7 | COc1ccc(Cl)cc1NC(=O)c1nnn(Cc2cccc(C(F)(F)F)c2)c1N | inconclusive: 8.2 µM [cytotoxic, partial curve]
8 | O=C(NC(c1cccnc1)C(F)(F)F)c1cc(COc2ccc3c(c2)CCCC3)on1 (stereo not given) | inconclusive: 29.1 µM [cytotoxic, single point]
9 | Cc1ncc([N+](=O)[O-])n1CC(=O)N/N=C/c1ccccc1F | inconclusive: 29.1 µM [rising, partial curve, poor fit]
10 | CCCCCCCCN1C(=O)[C@H](CC(=O)NCCCOCCCC)C[C@@]2(C(=O)OCC)CCCC=C12 | inconclusive: 11.6 µM [cytotoxic, partial curve]
11 | Cc1cn([C@H]2C[C@H](O)[C@@H](CNCc3cccc(OC4CCCC4)c3)O2)c(=O)[nH]c1=O | inactive
12 | C=CCSc1nnc(NC(=O)Cc2ccc(OC)c(OC)c2)s1 | inconclusive: 18.4 µM [cytotoxic, single point]
13 | c1ccc(-c2oc3ncnc(NCCCN4CCOCC4)c3c2-c2ccccc2)cc1 | inconclusive: 18.4 µM [cytotoxic, single point]
14 | C[C@H](CO)N1C[C@H](C)[C@H](CN(C)Cc2cccc(O)c2)OCc2ccccc2-c2c(n(C)c3ccccc23)C1=O | inconclusive: 0.92 µM [cytotoxic, partial curve, poor fit]
15 | COc1ccc(C(=O)Oc2cccc(Nc3ncnc4ccccc34)c2)cc1OC | active: 18.4 µM
16 | C[C@H]1CN([C@@H](C)CO)C(=O)CCCn2cc(nn2)CO[C@@H]1CN(C)S(=O)(=O)c1ccc(Oc2ccccc2)cc1 | inconclusive: 0.0073 µM [rising, full curve]
17 | CN(CC(=O)Nc1ccc(Cl)c(C(F)(F)F)c1)C(=O)c1cc(-c2ccncc2)nc2ccccc12 | inconclusive: 32.6 µM [cytotoxic, partial curve, poor fit]
18 | CC(C)Cc1nc2sc3c(=O)[nH]cnc3c2c2c1CCC2 | active: 16.4 µM
19 | O=C(Nc1ccc(OC(F)(F)F)cc1)c1ccc2c(c1)no[n+]2[O-] | active: 20.6 µM
20 | CN(C)/C=N/c1c(C#N)cnn1-c1ncnc2sc(-c3ccccc3)cc12 | inconclusive: 20.6 µM [cytotoxic, single point]
21 | CC(/C=C/c1ccccc1)=N\NC(=O)c1ccc(Br)cc1 | inconclusive: 16.4 µM [cytotoxic, partial curve, poor fit]
22 | COc1cc(-c2nc(-c3ccccc3)c(-c3cccs3)[nH]2)cc(OC)c1OC | inactive

Row | SMILES | Potency
23 | COc1ccccc1NC(=O)c1sc2nc(C)c(C(=O)Nc3ccc(C)cc3C)c(-c3cccs3)c2c1N | inconclusive: 29.1 µM [rising, single point]
24 | Cc1ccc(NC(=O)C(=O)NCC(c2cccnc2)N2CCN(c3ccccc3F)CC2)cc1Cl (stereo not given) | inactive
25 | Cc1cc(OC(=O)c2ccc(S(=O)(=O)N3CCCCC3)cc2)c([N+](=O)[O-])c(=O)[nH]1 | inactive
26 | CCCC[C@@H]1CNC(=O)C(=O)N1CCCCC1CCCCC1 | inconclusive: 23.1 µM [cytotoxic, partial curve, poor fit]
27 | CCc1ccccc1Nc1nn2c(=O)c3ccc(C(=O)NC(C)c4ccccc4)cc3nc2s1 (stereo not given) | inconclusive: 18.4 µM [cytotoxic, single point]
28 | Cc1ccc(S(=O)(=O)N(C)C)cc1NC(=O)COC(=O)CN1C(=O)c2ccccc2C1=O | inactive
29 | Cc1onc(-c2ccccc2)c1C(=O)NNC(=S)NC(=O)/C=C/c1ccccc1 | active: 2.91 µM
30 | COc1ccccc1CCNC(=O)c1cc(COc2cccc(C(F)(F)F)c2)on1 | inconclusive: 29.1 µM [rising, single point]
31 | O=C(N/N=C/c1c(O)n(-c2ccccc2Cl)c(=O)c2ccccc12)C1COc2ccccc2O1 (stereo not given) | inconclusive: 23.1 µM [cytotoxic, partial curve]
32 | Cc1ccc(C(=O)NCC(=O)N(C)Cc2ccc(Cl)cc2Cl)s1 | active: 16.4 µM
33 | CCc1ccc(CN2CCc3nc(Nc4ccccc4)ncc3C2)cc1 | inconclusive: 18.4 µM [cytotoxic, partial curve, poor fit]
34 | CCOc1ccccc1C(=O)NC(C)c1ccc2c(c1)OCO2 (stereo not given) | active: 9.2 µM
35 | CCO[C@@H]1OC(C(=O)O)=C[C@H](c2coc3ccccc3c2=O)[C@H]1CCCO | inconclusive: 5.8 µM [rising, partial curve]
36 | CCCCn1nnnc1C(c1cc2ccccc2o1)N(Cc1ccccc1)Cc1ccccc1 (stereo not given) | inconclusive: 14.6 µM [cytotoxic, single point]
37 | COc1cccc(C2c3c(-c4ccccc4O)n[nH]c3C(=O)N2Cc2ccco2)c1 (stereo not given) | inactive
38 | O=C1C2CC=CCC2C(=O)N1c1ccc(NCCc2ccccc2F)c([N+](=O)[O-])c1 (stereo not given) | inconclusive: 14.6 µM [cytotoxic, partial curve]
39 | CCOc1cc2[nH]c(=O)n(CCCCC(=O)N3CCN(c4cccc(Cl)c4)CC3)c(=O)c2cc1OCC | inconclusive: 23.1 µM [rising, single point]
40 | CCOC(=O)c1c(-c2ccc(F)cc2)csc1/N=C/N(C)C | inconclusive: 20.6 µM [cytotoxic, single point]
41 | COc1ccc(N=Nc2c(C)[nH][nH]c2=O)cc1 | active: 23.1 µM
42 | Cc1ccccc1C(=O)NC(=S)Nc1ccccc1[N+](=O)[O-] | inconclusive: 16.4 µM [cytotoxic, single point]
43 | CCOC(=O)Cn1c(=O)oc2cc(S(=O)(=O)NCc3cccs3)ccc21 | inconclusive: 29.1 µM [rising, single point]
44 | CCCNC(=O)C1CC(c2ccccc2[N+](=O)[O-])=NO1 (stereo not given) | inconclusive: 29.1 µM [rising, single point]

Reformatted: results already given.
Cc1cc(OC(=O)c2ccc(S(=O)(=O)N3CCCCC3)cc2)c([N+](=O)[O-])c(=O)[nH]1
  Potency: inactive
CCCC[C@@H]1CNC(=O)C(=O)N1CCCCC1CCCCC1
  Potency: inconclusive: 23.1 µM [cytotoxic, partial curve, poor fit]

Arranged by formula weight (high to low): some entries from above.
Row | SMILES | Potency
23 | COc1ccccc1NC(=O)c1sc2nc(C)c(C(=O)Nc3ccc(C)cc3C)c(-c3cccs3)c2c1N | inconclusive: 29.1 µM [rising, single point]
26 | CCCC[C@@H]1CNC(=O)C(=O)N1CCCCC1CCCCC1 | inconclusive: 23.1 µM [cytotoxic, partial curve, poor fit]
44 | CCCNC(=O)C1CC(c2ccccc2[N+](=O)[O-])=NO1 (stereo not given) | inconclusive: 29.1 µM [rising, single point]

(continued)

Row | SMILES | Potency
45 | COc1ccc(S(=O)(=O)N2CCC(C(=O)N3CCN(C)CC3)CC2)cc1Cl | inactive
46 | CN(CCc1cnn(C)c1)Cc1nc(Cc2ccccc2)no1 | inconclusive: 0.461 µM [cytotoxic, full curve]
47 | O=C(NCCSCc1c(F)cccc1Cl)c1ccc(CN2CCOCC2)cc1 | active: 16.4 µM
48 | CC1CCCCC1NC(=O)CCn1c(=O)oc2ccccc21 (stereo not given) | inconclusive: 20.6 µM [cytotoxic, partial curve]
49 | COc1ccc(CC(=O)Oc2ccc(C)cc2C)cc1 | inconclusive: 11.6 µM [rising, single point]
50 | COC(=O)c1sc(N2CCN(c3ccc(Cl)cc3)CC2)nc1N | inconclusive: 29.1 µM [cytotoxic, single point]
51 | COc1cc(-c2nnc3sc(Cc4ccccc4)nn23)cc(OC)c1OC | inconclusive: 6.51 µM [cytotoxic, partial curve, poor fit]
52 | CCCCNc1nc(NCc2ccccc2)nc2ccccc12 | inconclusive: 29.1 µM [cytotoxic, single point]
53 | COc1ccc(C(C)(C)C)cc1NC(=O)C1CC=CCC1C(=O)O (stereo not given) | inactive
54 | CCCc1c(-c2cccc(F)c2)ncn1Cc1ccccc1OC | inconclusive: 20.6 µM [cytotoxic, partial curve]
55 | Cc1cccc(Nc2nnc(SCC3CCCCO3)s2)c1 (stereo not given) | inconclusive: 20.6 µM [cytotoxic, single point]
56 | C[C@]12CC[C@@H]3c4cc(O)c(O)cc4CC[C@H]3[C@@H]1CC[C@@H]2O | active: 13 µM
57 | CCC(C)(C)n1nnnc1C(c1cc2cc(OC)ccc2[nH]c1=O)N1CCc2ccccc21 (stereo not given) | active: 18.4 µM
58 | CCOc1ccc(CCNC(=O)COC(=O)C2CCN(S(=O)(=O)c3ccccc3)CC2)cc1OCC | inconclusive: 14.6 µM [rising, partial curve, poor fit]
59 | CCN(CC)S(=O)(=O)c1ccc(Cl)c(C(=O)Nc2ccc(Cl)cc2[N+](=O)[O-])c1 | active: 4.11 µM
60 | OC(CNC1CCCC1)COc1ccc(-c2ccccc2)cc1 (stereo not given) | inconclusive: 25.9 µM [cytotoxic, partial curve, poor fit]
61 | O=S(=O)(c1ccc(Br)cc1)N1CCC2(CC1)OCCO2 | inconclusive: 16.4 µM [cytotoxic, single point]
62 | Cc1[nH]c(=O)[nH]c(=O)c1S(=O)(=O)N1CCN(c2ccccc2Cl)CC1 | inconclusive: 2.91 µM [rising, full curve]
63 | O=C(CN1CCN(C(=O)c2ccco2)CC1)Nc1ccc(F)cc1F | inactive
64 | CC(CNC(=O)CCc1nnc2ccc(N3CCC4(CC3)OCCO4)nn12)c1ccccc1 (stereo not given) | inconclusive: 9.2 µM [rising, partial curve, poor fit]
65 | O=C(CCc1nnc(-c2ccccc2)o1)NCc1c(F)cccc1F | inconclusive: 16.4 µM [rising, single point]
